Measurements: paper doi:10.1101/2025.02.03.636272

Amino acid sequences for entries named in this document (tags omitted).
UniProt Q92793: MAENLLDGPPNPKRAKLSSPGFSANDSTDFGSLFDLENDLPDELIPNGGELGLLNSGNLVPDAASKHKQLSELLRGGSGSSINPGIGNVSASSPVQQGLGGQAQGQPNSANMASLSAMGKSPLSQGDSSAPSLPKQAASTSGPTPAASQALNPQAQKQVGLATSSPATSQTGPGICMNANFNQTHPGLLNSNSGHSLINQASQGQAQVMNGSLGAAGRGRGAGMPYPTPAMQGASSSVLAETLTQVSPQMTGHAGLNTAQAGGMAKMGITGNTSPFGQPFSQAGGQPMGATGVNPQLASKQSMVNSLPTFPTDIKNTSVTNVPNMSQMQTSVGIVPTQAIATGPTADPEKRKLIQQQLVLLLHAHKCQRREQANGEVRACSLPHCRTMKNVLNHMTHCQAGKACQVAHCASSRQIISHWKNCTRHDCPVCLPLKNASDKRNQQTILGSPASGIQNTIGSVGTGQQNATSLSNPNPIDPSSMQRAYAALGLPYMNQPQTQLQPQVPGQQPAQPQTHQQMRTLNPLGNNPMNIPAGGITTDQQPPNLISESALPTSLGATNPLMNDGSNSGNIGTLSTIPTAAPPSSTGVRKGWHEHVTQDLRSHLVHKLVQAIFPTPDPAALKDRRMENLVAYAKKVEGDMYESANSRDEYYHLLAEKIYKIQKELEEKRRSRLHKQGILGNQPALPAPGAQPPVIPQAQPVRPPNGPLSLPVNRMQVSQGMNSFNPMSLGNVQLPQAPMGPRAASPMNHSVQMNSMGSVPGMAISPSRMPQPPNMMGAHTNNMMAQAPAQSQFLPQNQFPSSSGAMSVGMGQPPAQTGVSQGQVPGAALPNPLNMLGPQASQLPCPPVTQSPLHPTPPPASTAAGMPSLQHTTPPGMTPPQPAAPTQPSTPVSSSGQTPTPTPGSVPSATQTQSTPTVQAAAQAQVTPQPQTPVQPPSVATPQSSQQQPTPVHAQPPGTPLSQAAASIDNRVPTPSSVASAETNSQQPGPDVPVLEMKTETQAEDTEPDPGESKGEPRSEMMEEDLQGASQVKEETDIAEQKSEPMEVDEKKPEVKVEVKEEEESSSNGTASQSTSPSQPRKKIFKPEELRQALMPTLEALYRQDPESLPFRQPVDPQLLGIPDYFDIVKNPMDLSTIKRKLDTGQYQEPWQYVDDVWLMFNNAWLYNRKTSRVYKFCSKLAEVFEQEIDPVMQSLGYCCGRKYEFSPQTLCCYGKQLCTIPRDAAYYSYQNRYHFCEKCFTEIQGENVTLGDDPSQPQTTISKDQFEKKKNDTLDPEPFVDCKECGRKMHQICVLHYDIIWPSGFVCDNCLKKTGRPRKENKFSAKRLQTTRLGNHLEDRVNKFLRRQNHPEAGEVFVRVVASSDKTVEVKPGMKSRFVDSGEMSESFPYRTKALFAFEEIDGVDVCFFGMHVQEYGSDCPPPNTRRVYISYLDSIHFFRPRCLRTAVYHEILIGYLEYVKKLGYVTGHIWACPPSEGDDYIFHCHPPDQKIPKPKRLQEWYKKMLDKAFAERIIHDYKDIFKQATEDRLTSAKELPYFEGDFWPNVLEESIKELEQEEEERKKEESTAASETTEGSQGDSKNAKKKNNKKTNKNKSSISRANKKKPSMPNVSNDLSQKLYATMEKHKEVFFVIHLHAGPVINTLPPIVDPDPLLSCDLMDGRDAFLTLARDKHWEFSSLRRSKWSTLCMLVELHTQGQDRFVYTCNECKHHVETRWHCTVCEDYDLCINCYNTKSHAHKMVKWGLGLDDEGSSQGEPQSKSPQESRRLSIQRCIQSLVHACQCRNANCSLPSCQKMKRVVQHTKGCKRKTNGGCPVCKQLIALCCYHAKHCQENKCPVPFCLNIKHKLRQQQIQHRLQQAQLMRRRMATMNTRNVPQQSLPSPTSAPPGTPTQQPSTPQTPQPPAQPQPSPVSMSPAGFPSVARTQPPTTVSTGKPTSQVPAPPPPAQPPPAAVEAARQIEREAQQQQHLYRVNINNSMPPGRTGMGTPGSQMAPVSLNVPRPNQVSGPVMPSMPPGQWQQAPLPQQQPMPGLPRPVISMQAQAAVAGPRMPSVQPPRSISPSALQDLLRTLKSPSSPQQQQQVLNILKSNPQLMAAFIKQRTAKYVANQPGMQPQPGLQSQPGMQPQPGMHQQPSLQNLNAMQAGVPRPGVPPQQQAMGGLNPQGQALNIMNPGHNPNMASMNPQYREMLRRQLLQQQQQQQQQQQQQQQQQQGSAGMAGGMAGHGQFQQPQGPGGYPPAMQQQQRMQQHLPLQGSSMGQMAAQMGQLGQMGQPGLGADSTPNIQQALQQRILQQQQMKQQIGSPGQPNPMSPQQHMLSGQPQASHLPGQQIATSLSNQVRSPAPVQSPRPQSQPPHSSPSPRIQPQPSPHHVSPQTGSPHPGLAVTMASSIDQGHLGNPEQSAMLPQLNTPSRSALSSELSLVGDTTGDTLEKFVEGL
UniProt P51532: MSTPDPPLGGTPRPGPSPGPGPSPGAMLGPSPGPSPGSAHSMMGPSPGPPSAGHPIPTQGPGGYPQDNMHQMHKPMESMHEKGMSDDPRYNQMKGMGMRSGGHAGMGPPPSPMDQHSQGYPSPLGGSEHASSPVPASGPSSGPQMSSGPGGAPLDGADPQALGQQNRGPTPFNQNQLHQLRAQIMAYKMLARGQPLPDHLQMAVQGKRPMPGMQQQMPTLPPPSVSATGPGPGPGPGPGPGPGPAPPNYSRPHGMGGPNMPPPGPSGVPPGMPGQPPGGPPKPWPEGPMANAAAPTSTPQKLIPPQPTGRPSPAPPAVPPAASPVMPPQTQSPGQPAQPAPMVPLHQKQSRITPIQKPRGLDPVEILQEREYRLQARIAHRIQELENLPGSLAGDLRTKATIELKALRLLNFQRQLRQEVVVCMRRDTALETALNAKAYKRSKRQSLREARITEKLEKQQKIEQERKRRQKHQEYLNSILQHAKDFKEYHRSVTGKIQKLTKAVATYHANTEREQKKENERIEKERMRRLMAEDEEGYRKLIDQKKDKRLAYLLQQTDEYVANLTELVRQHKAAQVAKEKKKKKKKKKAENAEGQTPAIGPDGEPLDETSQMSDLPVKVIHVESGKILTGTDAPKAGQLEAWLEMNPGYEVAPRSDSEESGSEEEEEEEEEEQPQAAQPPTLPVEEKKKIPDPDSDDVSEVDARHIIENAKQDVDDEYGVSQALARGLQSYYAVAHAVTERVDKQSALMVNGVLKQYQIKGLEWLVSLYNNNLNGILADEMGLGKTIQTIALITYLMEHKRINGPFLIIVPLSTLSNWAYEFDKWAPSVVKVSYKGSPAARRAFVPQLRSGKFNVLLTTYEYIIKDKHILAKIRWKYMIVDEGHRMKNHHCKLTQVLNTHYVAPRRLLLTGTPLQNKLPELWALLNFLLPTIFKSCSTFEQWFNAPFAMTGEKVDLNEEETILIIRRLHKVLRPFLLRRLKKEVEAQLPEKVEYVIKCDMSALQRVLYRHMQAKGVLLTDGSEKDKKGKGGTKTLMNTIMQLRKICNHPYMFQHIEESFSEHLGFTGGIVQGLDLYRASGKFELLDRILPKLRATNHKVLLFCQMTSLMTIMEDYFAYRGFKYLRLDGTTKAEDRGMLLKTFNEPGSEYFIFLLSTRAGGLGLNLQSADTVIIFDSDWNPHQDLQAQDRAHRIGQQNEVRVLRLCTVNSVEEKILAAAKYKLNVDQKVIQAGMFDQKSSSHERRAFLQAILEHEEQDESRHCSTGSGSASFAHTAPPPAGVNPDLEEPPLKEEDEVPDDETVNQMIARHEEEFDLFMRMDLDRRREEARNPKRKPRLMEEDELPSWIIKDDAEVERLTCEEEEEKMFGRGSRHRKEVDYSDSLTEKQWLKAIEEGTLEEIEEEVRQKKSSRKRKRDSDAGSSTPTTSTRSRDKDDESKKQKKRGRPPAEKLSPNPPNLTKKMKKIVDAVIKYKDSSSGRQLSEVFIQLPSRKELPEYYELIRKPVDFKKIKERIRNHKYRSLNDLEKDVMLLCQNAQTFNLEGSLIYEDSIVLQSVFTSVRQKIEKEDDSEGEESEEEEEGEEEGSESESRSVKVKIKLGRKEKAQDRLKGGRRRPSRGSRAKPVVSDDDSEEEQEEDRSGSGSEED

Assays:
[1] = molecular target: T1, His-tagged VDR (VDRv1-His) (human) (UniProt P11473); test: affinity purification with mass spectrometry
T1 sequence: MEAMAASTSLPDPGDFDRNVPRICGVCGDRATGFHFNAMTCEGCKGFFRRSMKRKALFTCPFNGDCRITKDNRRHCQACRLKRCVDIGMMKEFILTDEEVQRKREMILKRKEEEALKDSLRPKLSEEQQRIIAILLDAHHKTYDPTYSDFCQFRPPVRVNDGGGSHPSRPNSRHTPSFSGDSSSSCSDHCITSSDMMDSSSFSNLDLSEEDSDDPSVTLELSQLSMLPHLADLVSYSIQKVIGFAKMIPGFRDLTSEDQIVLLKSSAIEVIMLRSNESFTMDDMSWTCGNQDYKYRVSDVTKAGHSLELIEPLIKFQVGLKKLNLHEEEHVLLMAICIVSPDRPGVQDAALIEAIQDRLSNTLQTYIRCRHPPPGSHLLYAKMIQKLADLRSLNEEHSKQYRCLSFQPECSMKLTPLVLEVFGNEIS

[2] = molecular target: T1, His-tagged VDR (VDRv1-His) (human); test: affinity purification with mass spectrometry; remark: listed apart in the source

Molecule	binding [1]	binding [2]
CREB binding protein (from UniProt Q92793 1-2442)	binds	–
BRG1 transcriptional activator (from UniProt P51532 1-1647)	binds	–
retinoid X receptor (RXR), endogenous (human (endogenous in HEK293))	binds	–
CCCCTC-Binding Factor (CTCF) repressor (protein, UniProt P49711 1-727) MEGDAVEAIVEESETFIKGKERKTYQRRREGGQEEDACHLPQNQTDGGEVVQDVNSSVQMVMMEQLDPTLLQMKTEVMEGTVAPEAEAAVDDTQIITLQVVNMEEQPINIGELQLVQVPVPVTVPVATTSVEELQGAYENEVSKEGLAESEPMICHTLPLPEGFQVVKVGANGEVETLEQGELPPQEDPSWQKDPDYQPPAKKTKKTKKSKLRYTEEGKDVDVSVYDFEEEQQEGLLSEVNAEKVVGNMKPPKPTKIKKKGVKKTFQCELCSYTCPRRSNLDRHMKSHTDERPHKCHLCGRAFRTVTLLRNHLNTHTGTRPHKCPDCDMAFVTSGELVRHRRYKHTHEKPFKCSMCDYASVEVSKLKRHIRSHTGERPFQCSLCSYASRDTYKLKRHMRTHSGEKPYECYICHARFTQSGTMKMHILQKHTENVAKFHCPHCDTVIARKSDLGVHLRKQHSYIEQGKKCRYCDAVFHERYALIQHQKSHKNEKRFKCDQCDYACRQERHMIMHKRTHTGEKPYACSHCDKTFRQKQLLDMHFKRYHDPNFVPAAFVCSKCGKTFTRRNTMARHADNCAGPDGVEGENGGETKKSKRGRKRKMRSKKEDSSDSENAEPDLDDNEDEEEPAVEIEPEPEPQPVTPAPPPAKKRRGRPPGRTNQPKQNQPTAIIQVEDQNTGAIENIIVEVKKEPDAEPAEGEEEEAQPAATDAPNGDLTPEMILSMMDR	–	binds
NCoA-5 (protein, UniProt Q9HCD5 1-579) MNTAPSRPSPTRRDPYGFGDSRDSRRDRSPIRGSPRREPRDGRNGRDARDSRDIRDPRDLRDHRHSRDLRDHRDSRSVRDVRDVRDLRDFRDLRDSRDFRDQRDPMYDRYRDMRDSRDPMYRREGSYDRYLRMDDYCRRKDDSYFDRYRDSFDGRGPPGPESQSRAKERLKREERRREELYRQYFEEIQRRFDAERPVDCSVIVVNKQTKDYAESVGRKVRDLGMVVDLIFLNTEVSLSQALEDVSRGGSPFAIVITQQHQIHRSCTVNIMFGTPQEHRNMPQADAMVLVARNYERYKNECREKEREEIARQAAKMADEAILQERERGGPEEGVRGGHPPAIQSLINLLADNRYLTAEETDKIINYLRERKERLMRSSTDSLPGPISRQPLGATSGASLKTQPSSQPLQSGQVLPSATPTPSAPPTSQQELQAKILSLFNSGTVTANSSSASPSVAAGNTPNQNFSTAANSQPQQRSQASGNQPPSILGQGGSAQNMGPRPGAPSQGLFGQPSSRLAPASNMTSQRPVSSTGINFDNPSVQKALDTLIQSGPALSHLVSQTTAQMGQPQAPMGSYQRHY	–	binds

Like-named read-outs stand apart in the source and are kept apart here. These are yes or no findings as the source states them, for the method shown. In cells and extracts the contact can be indirect. A yes stands for co-enrichment or nearness to the bait. Other partners may have been found. Where a sequence is shown, tags or fusion partners need not be part of it.
